# Test results from the supplement of paper PMC8728848.
# The list shows a part of the results.
# B1: FliC (Clostridium difficile) (protein)
# chain: MRVNTNVSALIANNQMGRNVNGQSKSMEKLSSGVRIKRAADDAAGLAISEKMRAQIKGLDQAGRNVQDGISVVQTAEGSLEETGNILQRMRTLSLQSANEINNTEEREKIADELTQLKDEIERISSSTEFNGKKLLDGTSSTIRLQVGASYGTNVSGTSNNNNEIKIQLVNTASIMASAGITTASIGSMKAGGTTGTDAAKTMVSSLDAALKSLNSSRAKLGAQQNRLESTQNNLNNTLENVTAAESRIRDTDVASEMVNLSKMNILVQASQSMLAQANQQPQGVLQLLG
# How the values were obtained:
# Assay in all cases: glycan array binding signal (z-score within array); higher = stronger binding
# Settings in all cases: glycan notation: IUPAC condensed, linker removed
# [1] = target: GlcNAc(b1-3)Gal(b1-4)GlcNAc(b1-3)Gal(b1-4)GlcNAc(b1-2)[GlcNAc(b1-3)Gal(b1-4)GlcNAc(b1-3)Gal(b1-4)GlcNAc(b1-6)]Man(a1-6)[GlcNAc(b1-3)Gal(b1-4)GlcNAc(b1-3)Gal(b1-4)GlcNAc(b1-2)Man(a1-3)]Man(b1-4)GlcNAc(b1-4)[Fuc(a1-6)]GlcNAc
# Method in brief: (§1)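 Glycan array data came from 3228 arrays in the Consortium for Functional Glycomics database, and only arrays with an available protein sequence were kept. Glycan names were put into IUPAC-condensed notation, and columns mapping to the same glycan were averaged. The binding signal is a within-array Z-score, averaged across arrays of one protein sequence run at different concentrations or buffers and across linkers. A negative Z-score can be read as non-binding.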
# [2] = target: GlcNAc(b1-3)Gal(b1-4)GlcNAc(b1-3)Gal(b1-4)GlcNAc(b1-3)Gal(b1-4)GlcNAc(b1-2)Man(a1-3)[GlcNAc(b1-3)Gal(b1-4)GlcNAc(b1-3)Gal(b1-4)GlcNAc(b1-3)Gal(b1-4)GlcNAc(b1-2)Man(a1-6)]Man(b1-4)GlcNAc(b1-4)GlcNAc
# Method in brief: as §1
# [3] = target: GlcNAc(b1-3)Gal(b1-4)GlcNAc(b1-3)Gal(b1-4)GlcNAc(b1-3)Gal(b1-4)GlcNAc(b1-2)Man(a1-3)[GlcNAc(b1-3)Gal(b1-4)GlcNAc(b1-3)Gal(b1-4)GlcNAc(b1-3)Gal(b1-4)GlcNAc(b1-2)Man(a1-6)]Man(b1-4)GlcNAc(b1-4)[Fuc(a1-6)]GlcNAc
# Method in brief: as §1
# [4] = target: GlcNAc(b1-3)Gal(b1-4)GlcNAc(b1-3)Gal(b1-4)GlcNAc(b1-3)Gal(b1-4)GlcNAc(b1-2)[GlcNAc(b1-3)Gal(b1-4)GlcNAc(b1-3)Gal(b1-4)GlcNAc(b1-3)Gal(b1-4)GlcNAc(b1-6)]Man(a1-6)[GlcNAc(b1-3)Gal(b1-4)GlcNAc(b1-3)Gal(b1-4)GlcNAc(b1-3)Gal(b1-4)GlcNAc(b1-2)Man(a1-3)]Man(b1-4)GlcNAc(b1-4)[Fuc(a1-6)]GlcNAc
# Method in brief: as §1
# [5] = target: GlcNAc(b1-3)Gal(b1-4)GlcNAc(b1-3)Gal(b1-4)GlcNAc(b1-3)Gal(b1-4)GlcNAc(b1-3)Gal(b1-4)GlcNAc(b1-2)Man(a1-3)[GlcNAc(b1-3)Gal(b1-4)GlcNAc(b1-3)Gal(b1-4)GlcNAc(b1-3)Gal(b1-4)GlcNAc(b1-3)Gal(b1-4)GlcNAc(b1-2)Man(a1-6)]Man(b1-4)GlcNAc(b1-4)GlcNAc
# Method in brief: as §1
# [6] = target: GlcNAc(b1-3)Gal(b1-4)GlcNAc(b1-3)Gal(b1-4)GlcNAc(b1-3)Gal(b1-4)GlcNAc(b1-3)Gal(b1-4)GlcNAc(b1-2)Man(a1-3)[GlcNAc(b1-3)Gal(b1-4)GlcNAc(b1-3)Gal(b1-4)GlcNAc(b1-3)Gal(b1-4)GlcNAc(b1-3)Gal(b1-4)GlcNAc(b1-2)Man(a1-6)]Man(b1-4)GlcNAc(b1-4)[Fuc(a1-6)]GlcNAc
# Method in brief: as §1
# [7] = target: GlcNAc(b1-3)Gal(b1-4)GlcNAc(b1-3)Gal(b1-4)GlcNAc(b1-3)Gal(b1-4)GlcNAc(b1-3)Gal(b1-4)GlcNAc(b1-2)[GlcNAc(b1-3)Gal(b1-4)GlcNAc(b1-3)Gal(b1-4)GlcNAc(b1-3)Gal(b1-4)GlcNAc(b1-3)Gal(b1-4)GlcNAc(b1-6)]Man(a1-6)[GlcNAc(b1-3)Gal(b1-4)GlcNAc(b1-3)Gal(b1-4)GlcNAc(b1-3)Gal(b1-4)GlcNAc(b1-3)Gal(b1-4)GlcNAc(b1-2)Man(a1-3)]Man(b1-4)GlcNAc(b1-4)[Fuc(a1-6)]GlcNAc
# Method in brief: as §1
# [8] = target: GlcNAc(b1-3)Gal(b1-4)GlcNAc(b1-3)Gal(b1-4)GlcNAc(b1-3)GalNAc
# Method in brief: as §1
# [9] = target: GlcNAc(b1-3)Gal(b1-4)GlcNAc(b1-3)GalNAc
# Method in brief: as §1
# [10] = target: GlcNAc(b1-3)Gal(b1-4)GlcNAc(b1-3)[GlcNAc(b1-3)Gal(b1-4)GlcNAc(b1-3)]GalNAc
# Method in brief: as §1
# [11] = target: GlcNAc(b1-3)Gal(b1-4)GlcNAc(b1-6)[Gal(b1-3)]GalNAc
# Method in brief: as §1
# [12] = target: GlcNAc(b1-3)Gal(b1-4)GlcNAc(b1-6)[GlcNAc(b1-3)Gal(b1-3)]GalNAc
# Method in brief: as §1
# [13] = target: GlcNAc(b1-3)Gal(b1-4)GlcNAc(b1-6)[GlcNAc(b1-3)]Gal(b1-4)GlcNAc
# Method in brief: as §1
# [14] = target: GlcNAc(b1-3)GalNAc
# Method in brief: as §1
# [15] = target: GlcNAc(b1-3)Man
# Method in brief: as §1
# [16] = target: GlcNAc(b1-3)[GlcNAc(b1-4)][GlcNAc(b1-6)]GlcNAc
# Method in brief: as §1
# [17] = target: GlcNAc(b1-3)[GlcNAc(b1-6)]Gal(b1-4)GlcNAc
# Method in brief: as §1
# [18] = target: GlcNAc(b1-3)[GlcNAc(b1-6)]GalNAc
# Method in brief: as §1
# [19] = target: GlcNAc(b1-4)Gal(b1-4)GlcNAc
# Method in brief: as §1
# [20] = target: GlcNAc(b1-4)GlcNAc
# Method in brief: as §1
# [21] = target: GlcNAc(b1-4)GlcNAc(b1-4)GlcNAc
# Method in brief: as §1
# [22] = target: GlcNAc(b1-4)GlcNAc(b1-4)GlcNAc(b1-4)GlcNAc(b1-4)GlcNAc
# Method in brief: as §1
# [23] = target: GlcNAc(b1-4)GlcNAc(b1-4)GlcNAc(b1-4)GlcNAc(b1-4)GlcNAc(b1-4)GlcNAc
# Method in brief: as §1
# [24] = target: GlcNAc(b1-4)[GlcNAc(b1-6)]GalNAc
# Method in brief: as §1
# [25] = target: GlcNAc(b1-6)Gal(b1-4)GlcNAc
# Method in brief: as §1
# [26] = target: GlcNAc(b1-6)GalNAc
# Method in brief: as §1
# [27] = target: GlcNAc6S(b1-3)Gal(b1-4)GlcNAc
# Method in brief: as §1
# [28] = target: Kdn(a2-3)Gal(b1-3)GalNAc
# Method in brief: as §1
# [29] = target: Kdn(a2-3)Gal(b1-3)GlcNAc
# Method in brief: as §1
# [30] = target: Kdn(a2-3)Gal(b1-4)Glc
# Method in brief: as §1
# [31] = target: Kdn(a2-3)Gal(b1-4)GlcNAc
# Method in brief: as §1
# [32] = target: Kdn(a2-3)Gal(b1-4)[Fuc(a1-3)]GlcNAc
# Method in brief: as §1
# [33] = target: Kdn(a2-6)Gal(b1-4)GlcNAc
# Method in brief: as §1
# [34] = target: Man(a1-2)Man(a1-2)Man(a1-3)Man
# Method in brief: as §1
# [35] = target: Man(a1-2)Man(a1-2)Man(a1-6)[Man(a1-3)]Man
# Method in brief: as §1
# [36] = target: Man(a1-2)Man(a1-3)Man
# Method in brief: as §1
# [37] = target: Man(a1-2)Man(a1-3)[Man(a1-2)Man(a1-6)]Man
# Method in brief: as §1
# [38] = target: Man(a1-2)Man(a1-3)[Man(a1-2)Man(a1-6)]Man(a1-6)[Man(a1-2)Man(a1-2)Man(a1-3)]Man
# Method in brief: as §1
binder,measurement,setting,value
B1,glycan array binding signal (z-score),[1],0.567
same,glycan array binding signal (z-score),[2],0.067
same,glycan array binding signal (z-score),[3],-0.149
same,glycan array binding signal (z-score),[4],-0.165
same,glycan array binding signal (z-score),[5],-0.244
same,glycan array binding signal (z-score),[6],-0.369
same,glycan array binding signal (z-score),[7],0.167
same,glycan array binding signal (z-score),[8],-0.501
same,glycan array binding signal (z-score),[9],-0.25
same,glycan array binding signal (z-score),[10],-0.998
same,glycan array binding signal (z-score),[11],-0.452
same,glycan array binding signal (z-score),[12],-0.342
same,glycan array binding signal (z-score),[13],-0.604
same,glycan array binding signal (z-score),[14],-0.216
same,glycan array binding signal (z-score),[15],-0.124
same,glycan array binding signal (z-score),[16],-0.972
same,glycan array binding signal (z-score),[17],-0.057
same,glycan array binding signal (z-score),[18],0.144
same,glycan array binding signal (z-score),[19],-0.756
same,glycan array binding signal (z-score),[20],-0.102
same,glycan array binding signal (z-score),[21],-0.293
same,glycan array binding signal (z-score),[22],0.186
same,glycan array binding signal (z-score),[23],-0.253
same,glycan array binding signal (z-score),[24],0.524
same,glycan array binding signal (z-score),[25],0.491
same,glycan array binding signal (z-score),[26],-0.08
same,glycan array binding signal (z-score),[27],0.071
same,glycan array binding signal (z-score),[28],0.916
same,glycan array binding signal (z-score),[29],0.045
same,glycan array binding signal (z-score),[30],0.681
same,glycan array binding signal (z-score),[31],-0.755
same,glycan array binding signal (z-score),[32],-0.419
same,glycan array binding signal (z-score),[33],-0.178
same,glycan array binding signal (z-score),[34],-0.487
same,glycan array binding signal (z-score),[35],-0.162
same,glycan array binding signal (z-score),[36],-0.455
same,glycan array binding signal (z-score),[37],0.04
same,glycan array binding signal (z-score),[38],-0.261

# Some of the entries above, reformatted.
binder	measurement	setting	value
B1	glycan array binding signal (z-score)	[1]	0.567
same	glycan array binding signal (z-score)	[5]	-0.244
same	glycan array binding signal (z-score)	[11]	-0.452
same	glycan array binding signal (z-score)	[19]	-0.756
same	glycan array binding signal (z-score)	[21]	-0.293
same	glycan array binding signal (z-score)	[26]	-0.08
same	glycan array binding signal (z-score)	[28]	0.916
same	glycan array binding signal (z-score)	[30]	0.681
same	glycan array binding signal (z-score)	[33]	-0.178
same	glycan array binding signal (z-score)	[36]	-0.455
